Results are given in words; binding and its absence hold for the method and conditions named. Binding seen in cells or lysates may run through a third protein. Some entries that bind do so weakly or less than the wild type.

By UniProt entry, the sequences of proteins in these tests, tags left out.
UniProt Q8CFI0: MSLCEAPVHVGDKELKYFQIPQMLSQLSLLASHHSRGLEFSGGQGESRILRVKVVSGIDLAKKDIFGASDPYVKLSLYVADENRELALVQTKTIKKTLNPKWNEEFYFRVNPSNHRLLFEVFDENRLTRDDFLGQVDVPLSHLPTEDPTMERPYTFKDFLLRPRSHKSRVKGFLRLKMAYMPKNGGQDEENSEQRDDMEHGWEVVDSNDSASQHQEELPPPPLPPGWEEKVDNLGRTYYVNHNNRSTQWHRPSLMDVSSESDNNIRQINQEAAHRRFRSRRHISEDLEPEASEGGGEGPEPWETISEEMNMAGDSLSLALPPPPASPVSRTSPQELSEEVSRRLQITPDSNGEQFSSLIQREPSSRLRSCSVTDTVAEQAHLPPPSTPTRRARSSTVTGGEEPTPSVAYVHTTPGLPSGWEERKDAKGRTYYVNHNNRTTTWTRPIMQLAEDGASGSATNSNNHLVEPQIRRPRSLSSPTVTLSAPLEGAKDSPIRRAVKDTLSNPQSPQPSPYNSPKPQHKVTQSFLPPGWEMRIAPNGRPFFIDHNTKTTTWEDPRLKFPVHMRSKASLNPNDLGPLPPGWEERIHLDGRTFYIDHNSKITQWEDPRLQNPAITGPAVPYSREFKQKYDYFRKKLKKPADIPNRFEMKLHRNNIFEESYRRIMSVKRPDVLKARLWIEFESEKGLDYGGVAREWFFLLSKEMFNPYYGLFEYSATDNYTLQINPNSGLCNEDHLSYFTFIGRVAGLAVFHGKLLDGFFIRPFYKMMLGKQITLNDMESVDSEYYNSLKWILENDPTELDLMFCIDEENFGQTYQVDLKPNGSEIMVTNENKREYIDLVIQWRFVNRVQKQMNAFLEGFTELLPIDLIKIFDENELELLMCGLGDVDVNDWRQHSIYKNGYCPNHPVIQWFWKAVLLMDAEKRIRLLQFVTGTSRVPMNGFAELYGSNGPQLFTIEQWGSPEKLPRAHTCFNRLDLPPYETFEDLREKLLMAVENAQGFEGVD

The experiment concerns the target Neuronal precursor cell expressed developmentally downregulated 4-2 (NEDD4-2) (mouse (endogenous in hippocampus)) (UniProt Q8CFI0). The experiment in a line: co-IP; mouse hippocampal tissue lysed in RIPA buffer with protease and phosphatase inhibitors; equal protein incubated with NEDD4-2, ubiquitin or GluA1 antibody and protein G sepharose at 4 °C overnight; western blot; WT, PLPP/CIN^-/- and PLPP/CIN^Tg mice, saline or KA (25 mg/kg, 2 h), control or NEDD4-2 siRNA.

B1: Pyridoxal-5'-phosphate phosphatase/chronophin (PLPP/CIN) (enzyme, mouse (endogenous in hippocampus), UniProt P60487 1-292, looked up)
chain: MARCERLRGAALRDVLGQAQGVLFDCDGVLWNGERIVPGAPELLQRLARAGKNTLFVSNNSRRARPELALRFARLGFAGLRAEQLFSSALCAARLLRQRLSGPPDASGAVFVLGGEGLRAELRAAGLRLAGDPGEDPRVRAVLVGYDEQFSFSRLTEACAHLRDPDCLLVATDRDPWHPLSDGSRTPGTGSLAAAVETASGRQALVVGKPSPYMFQCITEDFSVDPARTLMVGDRLETDILFGHRCGMTTVLTLTGVSSLEEAQAYLTAGQRDLVPHYYVESIADLMEGLED
notes: Pyridoxal-5'-phosphate phosphatase/chronophin, endogenous in the hippocampus of WT mice; source: endogenous, mouse hippocampal tissue lysate (RIPA buffer)
B1: the binding result is given as “binds”.
